Consider four molecules from publication PMC7797050.

The chains behind the UniProt entries cited, without tags or fusion partners.
UniProt Q86U44: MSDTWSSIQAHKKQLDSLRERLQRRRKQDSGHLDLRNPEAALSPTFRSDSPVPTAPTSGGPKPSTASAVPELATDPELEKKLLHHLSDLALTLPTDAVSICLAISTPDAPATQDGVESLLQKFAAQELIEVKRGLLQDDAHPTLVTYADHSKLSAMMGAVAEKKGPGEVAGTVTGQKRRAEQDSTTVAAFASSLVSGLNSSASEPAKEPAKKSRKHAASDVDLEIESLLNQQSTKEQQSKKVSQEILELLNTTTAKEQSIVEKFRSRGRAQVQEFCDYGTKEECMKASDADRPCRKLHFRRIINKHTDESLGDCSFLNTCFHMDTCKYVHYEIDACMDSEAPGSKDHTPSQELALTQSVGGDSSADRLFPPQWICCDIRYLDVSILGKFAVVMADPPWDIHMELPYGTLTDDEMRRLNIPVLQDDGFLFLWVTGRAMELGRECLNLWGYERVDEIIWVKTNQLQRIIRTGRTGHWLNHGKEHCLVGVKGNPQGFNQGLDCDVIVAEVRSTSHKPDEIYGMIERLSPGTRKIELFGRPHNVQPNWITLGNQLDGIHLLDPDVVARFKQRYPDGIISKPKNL
UniProt O94916: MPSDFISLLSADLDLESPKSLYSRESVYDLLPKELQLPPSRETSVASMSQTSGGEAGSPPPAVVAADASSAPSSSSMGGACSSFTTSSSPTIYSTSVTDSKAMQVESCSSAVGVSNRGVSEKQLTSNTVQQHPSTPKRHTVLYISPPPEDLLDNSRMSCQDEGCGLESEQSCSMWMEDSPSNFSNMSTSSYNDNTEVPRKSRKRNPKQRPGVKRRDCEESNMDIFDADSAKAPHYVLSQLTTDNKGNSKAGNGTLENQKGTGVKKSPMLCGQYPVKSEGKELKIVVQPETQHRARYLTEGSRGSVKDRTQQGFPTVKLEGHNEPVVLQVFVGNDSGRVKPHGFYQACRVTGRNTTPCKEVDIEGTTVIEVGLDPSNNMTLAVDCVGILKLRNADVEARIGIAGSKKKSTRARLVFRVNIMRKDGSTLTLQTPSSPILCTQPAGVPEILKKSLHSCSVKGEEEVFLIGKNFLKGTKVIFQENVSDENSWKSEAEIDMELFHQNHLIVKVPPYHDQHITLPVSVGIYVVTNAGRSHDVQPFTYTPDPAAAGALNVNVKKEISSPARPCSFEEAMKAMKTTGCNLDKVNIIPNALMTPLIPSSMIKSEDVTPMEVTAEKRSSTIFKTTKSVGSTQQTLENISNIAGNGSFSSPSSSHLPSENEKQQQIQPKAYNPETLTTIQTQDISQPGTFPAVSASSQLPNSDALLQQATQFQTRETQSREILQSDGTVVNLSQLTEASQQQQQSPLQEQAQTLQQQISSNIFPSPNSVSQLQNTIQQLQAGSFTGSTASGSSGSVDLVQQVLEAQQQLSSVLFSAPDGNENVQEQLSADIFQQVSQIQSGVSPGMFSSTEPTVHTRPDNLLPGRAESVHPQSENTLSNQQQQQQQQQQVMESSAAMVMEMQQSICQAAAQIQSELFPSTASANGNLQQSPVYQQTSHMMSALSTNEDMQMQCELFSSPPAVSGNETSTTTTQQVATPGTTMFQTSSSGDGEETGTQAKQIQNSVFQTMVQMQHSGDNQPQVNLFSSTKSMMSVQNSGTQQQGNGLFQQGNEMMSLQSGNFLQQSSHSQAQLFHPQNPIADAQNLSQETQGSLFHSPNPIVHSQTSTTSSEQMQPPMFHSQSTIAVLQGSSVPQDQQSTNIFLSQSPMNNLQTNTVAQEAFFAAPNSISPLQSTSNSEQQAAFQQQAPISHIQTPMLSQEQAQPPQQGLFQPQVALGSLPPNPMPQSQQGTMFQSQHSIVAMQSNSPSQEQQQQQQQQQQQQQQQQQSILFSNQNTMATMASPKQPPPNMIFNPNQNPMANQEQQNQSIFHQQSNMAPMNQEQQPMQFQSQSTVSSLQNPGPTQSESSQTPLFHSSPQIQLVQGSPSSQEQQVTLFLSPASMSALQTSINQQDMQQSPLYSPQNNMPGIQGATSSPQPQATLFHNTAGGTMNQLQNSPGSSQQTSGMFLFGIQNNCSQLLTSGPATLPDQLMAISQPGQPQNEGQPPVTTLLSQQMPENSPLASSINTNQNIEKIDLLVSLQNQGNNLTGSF

Results are given in words; binding and its absence hold for the method and conditions named. In cells and extracts the contact can be indirect. Some entries that bind do so weakly or less than the wild type.

Assay [1] addresses Flag-METTL3 (WT) (human) (UniProt Q86U44). The experiment in a line: co-IP; cells co-transfected with Flag-METTL3 and Myc-tagged TonEBP (WT), ΔRHD or Yc1; lysates after 24 h immunoprecipitated with anti-FLAG antibody.
The target in assay [2] is methyltransferase-like 3 (METTL3) (human (endogenous in HEK293T)) (UniProt Q86U44). Kind of assay: co-IP; endogenous proteins; HEK293T cell lysates (RIPA buffer) immunoprecipitated with anti-TonEBP antibody (control normal serum) or anti-METTL3 IgG (control normal rabbit IgG), Protein A/G Sepharose, immunoblot. A general note: A western blot detects proteins with antibodies after separation by electrophoresis.

Assay [3] deals with Tonicity-responsive enhancer binding protein (TonEBP) (human (endogenous in HEK293T)) (UniProt O94916). Described as above.
For assay [4], the target named is TonEBP (co-immunoprecipitation with RNaseH1) (UniProt O94916). The experiment in a line: co-IP; RNaseH1 co-immunoprecipitated with TonEBP (Supplementary Figure S12); details not shown.

For “Myc-tagged TonEBP (WT) (from UniProt O94916 1-1531)”, the binding entry in assay [1] is listed as “binds”.

Take “Tonicity-responsive enhancer binding protein (TonEBP) (from UniProt O94916 1-1531)”: the binding entry in assay [2] is listed as “binds”.

In the case of “methyltransferase-like 3 (METTL3) (from UniProt Q86U44 1-580) (enzyme)”, in assay [3], the binding entry was “binds”.

B1: RNaseH1 (enzyme, UniProt O60930 1-286)
chain: MSWLLFLAHRVALAALPCRRGSRGFGMFYAVRRGRKTGVFLTWNECRAQVDRFPAARFKKFATEDEAWAFVRKSASPEVSEGHENQHGQESEAKASKRLREPLDGDGHESAEPYAKHMKPSVEPAPPVSRDTFSYMGDFVVVYTDGCCSSNGRRRPRAGIGVYWGPGHPLNVGIRLPGRQTNQRAEIHAACKAIEQAKTQNINKLVLYTDSMFTINGITNWVQGWKKNGWKTSAGKEVINKEDFVALERLTQGMDIQWMHVPGHSGFIGNEEADRLAREGAKQSED
Take B1: the binding result in assay [4] is on record as “binds”.
